Measured values from patent publication US12491217B2, “Compositions and methods for promoting healthy neural development in an unborn baby” (The Regents of the University of California, priority 2019, dated 2025).

Assay: Metabolomics of fetal brain at E14.5
Assay type: in vivo, C57Bl/6J mice
Conditions: E14.5 fetal brain metabolite level; for fold of change ABX/SPF: ANOVA contrast ABX vs SPF; for fold of change GF/ABX: ANOVA contrast GF vs ABX; for fold of change GF/SPF: ANOVA contrast GF vs SPF; for fold of change GF/Sp: ANOVA contrast GF vs Sp; for fold of change Sp/ABX: ANOVA contrast Sp vs ABX; for fold of change Sp/SPF: ANOVA contrast Sp vs SPF

SMILES	fold of change ABX/SPF	fold of change GF/ABX	fold of change GF/SPF	fold of change GF/Sp	fold of change Sp/ABX	fold of change Sp/SPF
CC/C=C\C/C=C\C/C=C\C/C=C\C/C=C\C/C=C\CCC(=O)OCC(O)CO (stereo not drawn) [compound 2374]	1.03	0.57	0.58	1.34	0.43	0.44
CCCCCCCCCCCCCC(=O)OC(CO)CO [compound 2375]	0.80	0.91	0.73	0.98	0.94	0.75
CCCCCCCCCCCCCCCC(=O)OC(CO)CO [compound 2376]	0.74	0.76	0.56	0.94	0.81	0.60
CCCCCCCC/C=C\CCCCCCCC(=O)OC(CO)CO [compound 2379]	0.81	0.81	0.65	0.89	0.91	0.74
CCCCC/C=C\C/C=C\C/C=C\C/C=C\CCCC(=O)OC(CO)CO [compound 2381]	0.81	0.86	0.70	1.59	0.54	0.44
CC/C=C\C/C=C\C/C=C\C/C=C\C/C=C\C/C=C\CCC(=O)OC(CO)CO [compound 2383]	0.99	0.57	0.56	1.15	0.49	0.49
CCCCCCCCCCCCCCCC(=O)OCC(CO)OC(=O)CCCCCCCCCCCCCCC (stereo not drawn) [compound 2407]	0.81	1.11	0.90	1.10	1.01	0.81
CCCCCCCCC=CCCCCCCCC(=O)OC(CO)COC(=O)CCCCCCCCCCCCCCC (stereo not drawn) [compound 2411]	0.83	0.96	0.79	0.97	0.98	0.81
CCCCCC=CCC=CCCCCCCCC(=O)OC(CO)COC(=O)CCCCCCCCCCCCCCC (stereo not drawn) [compound 2413]	0.84	0.86	0.72	1.15	0.75	0.63
CCCCCC=CCC=CCC=CCC=CCCCC(=O)OC(CO)COC(=O)CCCCCCCCCCCCCCC (stereo not drawn) [compound 2419]	1.04	0.73	0.76	0.97	0.75	0.78
CCCCCC=CCC=CCC=CCC=CCCCC(=O)OC(CO)COC(=O)CCCCCCCCCCCCCCC (stereo not drawn) [compound 2420]	0.84	0.91	0.76	0.97	0.93	0.78
CCC=CCC=CCC=CCC=CCC=CCC=CCCC(=O)OC(CO)COC(=O)CCCCCCCCCCCCCCC (stereo not drawn) [compound 2422]	0.96	0.63	0.61	0.85	0.74	0.71
CCC=CCC=CCC=CCC=CCC=CCC=CCCC(=O)OC(CO)COC(=O)CCCCCCCCCCCCCCC (stereo not drawn) [compound 2423]	0.62	0.31	0.19	0.47	0.66	0.41
CCCCCCCCC=CCCCCCCCC(=O)OCC(CO)OC(=O)CCCCCCCC=CCCCCCCCC (stereo not drawn) [compound 2429]	0.91	0.90	0.82	0.97	0.93	0.85
CCCCCC=CCC=CCCCCCCCC(=O)OC(CO)COC(=O)CCCCCCCC=CCCCCCCCC (stereo not drawn) [compound 2431]	0.85	0.83	0.71	1.22	0.68	0.58
CCCCCC=CCC=CCCCCCCCC(=O)OC(CO)COC(=O)CCCCCCCC=CCCCCCCCC (stereo not drawn) [compound 2432]	0.96	0.87	0.84	1.17	0.74	0.72

SMILES	fold of change ABX/SPF	fold of change GF/ABX	fold of change GF/SPF	fold of change GF/Sp	fold of change Sp/ABX	fold of change Sp/SPF
CCCCCC=CCC=CCC=CCC=CCCCC(=O)OC(CO)COC(=O)CCCCCCCC=CCCCCCCCC (stereo not drawn) [compound 2445]	0.89	0.88	0.78	1.02	0.86	0.77
CCCCCCCCCCCCCCCC(O)C(N)CO (stereo not drawn) [compound 2474]	0.84	0.95	0.79	0.93	1.02	0.86
CCCCCCCCCCCCCCCC(=O)N[C@@H](CO)[C@H](O)CCCCCCCCCCCCCCC [compound 2480]	0.83	0.84	0.70	0.91	0.92	0.77
CCCCCCCCCCCCCCCCCC(=O)N[C@@H](CO)[C@H](O)CCCCCCCCCCCCCCC [compound 2481]	0.79	0.83	0.65	0.78	1.06	0.84
CCCCCCCCCCCCC/C=C/[C@@H](O)[C@H](CO)NC(=O)CCCCCCCCCCCCCCC [compound 2488]	0.83	0.70	0.58	0.80	0.87	0.72
CCCCCCCCCCCCC/C=C/[C@@H](O)[C@H](CO)NC(=O)CCCCCCCCCCCCCCCCC [compound 2491]	0.72	0.94	0.68	0.86	1.09	0.79
CCCCCCCCCCCCC/C=C/[C@@H](O)[C@H](CO)NC(=O)CCCCCCCCCCCCCCCCCCC [compound 2493]	0.72	0.91	0.65	0.87	1.05	0.75
CCCCCCCCCCCCCCCCCC(=O)NC(COC1OC(CO)C(O)C(O)C1O)C(O)CCCCCCCCCCCCCCC (stereo not drawn) [compound 2520]	0.94	0.95	0.89	1.03	0.92	0.87
CCCCCCCCCCCCCC=CC(O)C(COC1OC(CO)C(O)C(O)C1O)NC(=O)CCCCCCCCCCCCCCC (stereo not drawn) [compound 2522]	1.08	1.02	1.11	1.16	0.88	0.95
CCCCCCCCCCCCCC=CC(O)C(COC1OC(CO)C(O)C(O)C1O)NC(=O)CCCCCCCCCCCCCCCCC (stereo not drawn) [compound 2523]	0.86	0.95	0.82	0.93	1.01	0.88
CCCCCCCCCCCCCC=CC(O)C(COC1OC(CO)C(O)C(O)C1O)NC(=O)CCCCCCCCCCCCCCCCCCCCC (stereo not drawn) [compound 2525]	0.88	1.08	0.95	1.09	0.99	0.87
CCCCCCCCCCCCC/C=C/[C@@H](O)[C@H](CO[C@@H]1O[C@H](CO)[C@@H](O[C@@H]2O[C@H](CO)[C@H](O)[C@H](O)[C@H]2O)[C@H](O)[C@H]1O)NC(=O)CCCCCCCCCCCCCCC [compound 2549]	0.90	1.35	1.22	1.25	1.08	0.98
CCCCCCCCCCCCCCCC(=O)NC(COP(=O)([O-])OCC[N+](C)(C)C)C(O)CCCCCCCCCCCCCCC (stereo not drawn) [compound 2561]	0.82	0.99	0.82	1.01	0.98	0.81
CCCCCCCCCCCCC/C=C/[C@@H](O)[C@H](COP(=O)([O-])OCC[N+](C)(C)C)NC(=O)CCCCCCCCCCCCCCC [compound 2565]	0.93	1.06	0.99	1.01	1.05	0.98
CCCCCCCCCCCCC/C=C/[C@@H](O)[C@H](COP(=O)([O-])OCC[N+](C)(C)C)NC(=O)CCCCCCCCCCCCCCCCC [compound 2567]	0.84	1.01	0.84	0.87	1.15	0.96
